Data reported in patent US20060115428A1 (MorphoSys, published 2006).
Residue numbers refer to the chain shown, from its start. No constants are given. Whether binding was seen depends on the method and setting. Some results given as binding are weak or reduced against the parent protein; the word gives no strength.

Sequences of proteins named here, by UniProt entry; tags and fusion partners are left off. A change or cut given only in a name is not applied to a line headed by its entry. A line that says so, or that is headed by a name, gives the form on record, which may keep a tag or linker.
recombinant fibronectin domain ED-B (His)6 (P02751, form named): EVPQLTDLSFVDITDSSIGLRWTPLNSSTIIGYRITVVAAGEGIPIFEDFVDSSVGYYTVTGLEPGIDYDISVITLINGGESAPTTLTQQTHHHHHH

B1: MOR03062 (Fab, V domains shown)
VH: QVQLVESGGGLVQPGGSLRLSCAASGFTFSSYGMHWVRQAPGKGLEWVSVISSSGSYIYYADSVKGRFTISRDNSKNTLYLQMNSLRAEDTAVYYCARNKVGFDVWGQGTLVTVSS
VL: DIALTQPASVSGSPGQSITISCTGTSSDGGGYNTVSWYQQHPGKAPKLMIYYVHKRPSGVSNRFSGSKSGNTASLTISGLQAEDEADYYCQSWDLSVHQVVFGGGTKLTVLG
notes: Fab, L-CDR3 derivative of MOR02715
B2: MOR03064 (Fab, V domains shown)
VH: B1 VH
VL: B1 VL with S96L, V97A, H98P, Q99S
notes: as for B1
B3: MOR03055 (Fab, V domains shown)
VH: QVQLQESGPGLVKPGETLSLTCTVSGGSISSYYWSWIRQAPGKGLEWIGIGHWGSTQYNPSLKGRVTISVDTSKNQFSLKLSSVTAEDTAVYYCARFFDVWGQGTLVTVSS
VL: DIVLTQPPSVSGAPGQRVTISCSGSSSNIGSNTVRWYQQLPGTAPKLLIYSNNKRPSGVPDRFSGSKSGTSASLAITGLQSEDEADYYCQAWTRAHRYPVFGGGTKLTVLG
notes: Fab, L-CDR3 derivative of MOR02619
B4: MOR03069 (Fab, V domains shown)
VH: B3 VH
VL: DIVLTQPPSVSGAPGQRVTISCSGSSSNIGSNTVRWYQQLPGTAPKLLIYSNNKRPSGVPDRFSGSKSGTSASLAITGLQSEDEADYYCWTGMSYHFVFGGGTKLTVLG
notes: as for B3

What follows are binders tested against recombinant fibronectin domain ED-B (His)6 (human) (UniProt P02751) (assay: ELISA, immunohistochemistry and cell adhesion test).
In the case of B1, the binding is reported as “binds”. B2 was tested, and the binding was “binds”. B3 was tested, and the binding was “binds”. With B4 the binding was “binds”.
